# Laboratory results: patent CN114316047A
# Chains of the proteins cited; added tags and fusions are not shown. Residues count along the entry.
# UniProt Q15116, residues 25-167: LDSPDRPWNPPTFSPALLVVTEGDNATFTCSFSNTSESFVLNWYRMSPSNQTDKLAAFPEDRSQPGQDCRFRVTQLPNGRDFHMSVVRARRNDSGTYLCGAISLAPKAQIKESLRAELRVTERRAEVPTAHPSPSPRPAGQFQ
# These are yes or no findings as the source states them, for the method shown. Some results given as binding are weak or reduced against the parent protein; the word gives no strength.
# Biological target: 带组氨酸标签的PD-1抗原 (UniProt Q15116)
# Assay: SPR, Biacore 3000, antibody captured on Protein A CM5 chip, His-tagged PD-1 as analyte
binder,measurement,value
"hu9H8-hIgG4 (antibody, V domains shown) VH: EVQLLESGGGLVQPGGSLRLSCAASGFTFSDYYMYWVRQAPGKGLEWVSQISNGGGNTYYPDTVKGRFTISRDNSKNTLYLQMNSLRAEDTAVYYCSKSYYKYDGWYFDVWGQGTLVTVSS VL: DIVMTQSPDSLAVSLGERATINCRASESVEYSRTSLIQWYQQKPGQPPKLLIYAASYVESGVPDRFSGSGSGTDFTLTISSLQAEDVAVYYCQQARKVPWTFGQGTKLEIK",binding,binds
